In the supplement of paper PMC12067093, “Discovery and optimisation of a covalent ligand for TRIM25 and its application to targeted protein ubiquitination” (Chemical Science, 2025):
This is one part of the list.

The chains behind the UniProt entries cited, without tags or fusion partners. Where a name states a change or a piece, a line headed by the entry shows the natural chain unless it says otherwise.
UniProt Q99996, whole entry, looked up: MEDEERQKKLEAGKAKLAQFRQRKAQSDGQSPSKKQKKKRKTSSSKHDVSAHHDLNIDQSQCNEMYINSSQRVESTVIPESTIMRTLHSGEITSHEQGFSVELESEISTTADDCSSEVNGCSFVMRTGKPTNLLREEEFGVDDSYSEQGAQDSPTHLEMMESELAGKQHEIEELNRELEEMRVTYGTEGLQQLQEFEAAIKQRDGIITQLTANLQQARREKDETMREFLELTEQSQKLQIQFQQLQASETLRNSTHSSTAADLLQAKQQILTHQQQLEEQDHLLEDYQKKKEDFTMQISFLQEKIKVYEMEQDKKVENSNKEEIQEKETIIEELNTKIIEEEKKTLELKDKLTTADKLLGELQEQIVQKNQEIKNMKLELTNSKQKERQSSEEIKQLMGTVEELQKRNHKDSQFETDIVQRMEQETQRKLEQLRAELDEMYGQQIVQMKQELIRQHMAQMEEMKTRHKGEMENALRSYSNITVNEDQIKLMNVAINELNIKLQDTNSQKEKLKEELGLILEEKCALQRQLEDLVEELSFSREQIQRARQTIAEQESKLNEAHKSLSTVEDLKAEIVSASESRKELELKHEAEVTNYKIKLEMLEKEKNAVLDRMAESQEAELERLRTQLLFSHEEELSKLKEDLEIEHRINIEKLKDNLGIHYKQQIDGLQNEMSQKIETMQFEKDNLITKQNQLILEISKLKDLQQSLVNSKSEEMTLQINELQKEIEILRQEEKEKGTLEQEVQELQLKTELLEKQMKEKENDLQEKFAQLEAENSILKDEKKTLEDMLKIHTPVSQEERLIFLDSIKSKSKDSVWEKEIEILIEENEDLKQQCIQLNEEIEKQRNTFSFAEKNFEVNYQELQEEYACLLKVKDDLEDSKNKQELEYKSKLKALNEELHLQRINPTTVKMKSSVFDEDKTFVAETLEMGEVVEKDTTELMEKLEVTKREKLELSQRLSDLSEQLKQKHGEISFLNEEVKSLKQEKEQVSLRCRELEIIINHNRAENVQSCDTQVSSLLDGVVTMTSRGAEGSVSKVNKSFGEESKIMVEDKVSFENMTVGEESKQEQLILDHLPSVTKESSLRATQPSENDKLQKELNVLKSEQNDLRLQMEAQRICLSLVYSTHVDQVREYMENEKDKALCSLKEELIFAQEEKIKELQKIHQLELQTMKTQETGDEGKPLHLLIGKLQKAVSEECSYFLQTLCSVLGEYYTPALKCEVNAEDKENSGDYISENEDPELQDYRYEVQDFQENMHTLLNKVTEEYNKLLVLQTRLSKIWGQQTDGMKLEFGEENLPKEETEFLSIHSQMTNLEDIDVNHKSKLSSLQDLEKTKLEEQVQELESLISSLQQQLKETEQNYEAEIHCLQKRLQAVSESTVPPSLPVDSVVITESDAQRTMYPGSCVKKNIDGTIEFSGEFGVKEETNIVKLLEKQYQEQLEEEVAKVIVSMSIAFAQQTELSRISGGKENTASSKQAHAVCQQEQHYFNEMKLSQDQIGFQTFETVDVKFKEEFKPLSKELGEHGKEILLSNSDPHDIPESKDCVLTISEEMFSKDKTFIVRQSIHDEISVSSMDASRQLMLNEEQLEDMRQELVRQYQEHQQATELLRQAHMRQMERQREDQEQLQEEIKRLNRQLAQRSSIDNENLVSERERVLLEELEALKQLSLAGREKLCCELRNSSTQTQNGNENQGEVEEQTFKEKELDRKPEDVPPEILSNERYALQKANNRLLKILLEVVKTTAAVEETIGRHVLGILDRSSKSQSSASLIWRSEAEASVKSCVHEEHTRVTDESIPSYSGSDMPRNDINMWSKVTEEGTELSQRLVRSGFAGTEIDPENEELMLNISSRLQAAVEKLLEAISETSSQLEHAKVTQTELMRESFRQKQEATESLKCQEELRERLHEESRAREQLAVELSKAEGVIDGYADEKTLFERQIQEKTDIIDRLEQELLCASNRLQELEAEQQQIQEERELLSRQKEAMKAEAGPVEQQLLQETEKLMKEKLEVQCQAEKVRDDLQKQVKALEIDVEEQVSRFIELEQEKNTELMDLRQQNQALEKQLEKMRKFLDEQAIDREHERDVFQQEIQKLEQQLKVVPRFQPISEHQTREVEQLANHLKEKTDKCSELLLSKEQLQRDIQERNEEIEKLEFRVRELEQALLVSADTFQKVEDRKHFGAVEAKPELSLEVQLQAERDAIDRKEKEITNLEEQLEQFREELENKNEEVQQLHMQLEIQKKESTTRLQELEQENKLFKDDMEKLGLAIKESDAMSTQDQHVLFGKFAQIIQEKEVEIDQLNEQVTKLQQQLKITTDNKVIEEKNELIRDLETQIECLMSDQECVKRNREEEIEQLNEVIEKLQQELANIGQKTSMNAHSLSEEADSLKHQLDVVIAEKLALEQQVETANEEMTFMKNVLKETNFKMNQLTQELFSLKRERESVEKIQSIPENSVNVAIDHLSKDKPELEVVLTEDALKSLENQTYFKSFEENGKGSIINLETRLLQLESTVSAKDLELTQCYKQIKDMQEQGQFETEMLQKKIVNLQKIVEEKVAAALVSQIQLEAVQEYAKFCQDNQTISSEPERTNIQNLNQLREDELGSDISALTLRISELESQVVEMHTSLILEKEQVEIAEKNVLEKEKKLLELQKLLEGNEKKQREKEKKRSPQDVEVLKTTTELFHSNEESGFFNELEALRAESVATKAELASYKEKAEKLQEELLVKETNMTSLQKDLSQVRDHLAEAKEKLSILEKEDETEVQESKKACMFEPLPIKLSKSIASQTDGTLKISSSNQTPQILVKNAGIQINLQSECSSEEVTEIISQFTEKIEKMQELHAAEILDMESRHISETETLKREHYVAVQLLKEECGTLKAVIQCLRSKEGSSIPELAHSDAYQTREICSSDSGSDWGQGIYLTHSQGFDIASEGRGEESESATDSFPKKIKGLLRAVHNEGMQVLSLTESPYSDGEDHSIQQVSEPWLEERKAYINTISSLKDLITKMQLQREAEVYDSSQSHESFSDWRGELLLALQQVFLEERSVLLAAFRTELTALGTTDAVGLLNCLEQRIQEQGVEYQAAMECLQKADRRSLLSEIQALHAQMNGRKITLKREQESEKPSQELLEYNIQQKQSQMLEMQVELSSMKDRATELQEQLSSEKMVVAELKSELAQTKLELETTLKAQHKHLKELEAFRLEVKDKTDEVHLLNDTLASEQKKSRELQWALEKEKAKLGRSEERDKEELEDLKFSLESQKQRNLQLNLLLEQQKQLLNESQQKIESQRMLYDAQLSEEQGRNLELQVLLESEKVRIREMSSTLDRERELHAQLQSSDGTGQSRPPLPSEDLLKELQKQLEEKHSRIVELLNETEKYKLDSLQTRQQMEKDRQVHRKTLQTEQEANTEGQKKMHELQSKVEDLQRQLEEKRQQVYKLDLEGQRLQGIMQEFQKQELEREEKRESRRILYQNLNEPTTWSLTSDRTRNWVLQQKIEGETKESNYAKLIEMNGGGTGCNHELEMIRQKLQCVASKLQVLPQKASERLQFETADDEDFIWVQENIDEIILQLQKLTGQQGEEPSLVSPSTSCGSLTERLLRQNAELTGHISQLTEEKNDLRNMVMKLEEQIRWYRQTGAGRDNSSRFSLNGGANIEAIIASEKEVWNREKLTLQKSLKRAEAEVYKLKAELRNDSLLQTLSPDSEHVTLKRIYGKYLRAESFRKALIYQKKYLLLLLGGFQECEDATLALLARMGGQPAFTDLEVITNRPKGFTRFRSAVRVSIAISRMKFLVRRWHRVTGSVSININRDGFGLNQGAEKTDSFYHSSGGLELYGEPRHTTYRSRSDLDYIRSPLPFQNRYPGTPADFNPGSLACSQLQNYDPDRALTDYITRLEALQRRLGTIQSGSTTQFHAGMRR
UniProt Q9P2R3: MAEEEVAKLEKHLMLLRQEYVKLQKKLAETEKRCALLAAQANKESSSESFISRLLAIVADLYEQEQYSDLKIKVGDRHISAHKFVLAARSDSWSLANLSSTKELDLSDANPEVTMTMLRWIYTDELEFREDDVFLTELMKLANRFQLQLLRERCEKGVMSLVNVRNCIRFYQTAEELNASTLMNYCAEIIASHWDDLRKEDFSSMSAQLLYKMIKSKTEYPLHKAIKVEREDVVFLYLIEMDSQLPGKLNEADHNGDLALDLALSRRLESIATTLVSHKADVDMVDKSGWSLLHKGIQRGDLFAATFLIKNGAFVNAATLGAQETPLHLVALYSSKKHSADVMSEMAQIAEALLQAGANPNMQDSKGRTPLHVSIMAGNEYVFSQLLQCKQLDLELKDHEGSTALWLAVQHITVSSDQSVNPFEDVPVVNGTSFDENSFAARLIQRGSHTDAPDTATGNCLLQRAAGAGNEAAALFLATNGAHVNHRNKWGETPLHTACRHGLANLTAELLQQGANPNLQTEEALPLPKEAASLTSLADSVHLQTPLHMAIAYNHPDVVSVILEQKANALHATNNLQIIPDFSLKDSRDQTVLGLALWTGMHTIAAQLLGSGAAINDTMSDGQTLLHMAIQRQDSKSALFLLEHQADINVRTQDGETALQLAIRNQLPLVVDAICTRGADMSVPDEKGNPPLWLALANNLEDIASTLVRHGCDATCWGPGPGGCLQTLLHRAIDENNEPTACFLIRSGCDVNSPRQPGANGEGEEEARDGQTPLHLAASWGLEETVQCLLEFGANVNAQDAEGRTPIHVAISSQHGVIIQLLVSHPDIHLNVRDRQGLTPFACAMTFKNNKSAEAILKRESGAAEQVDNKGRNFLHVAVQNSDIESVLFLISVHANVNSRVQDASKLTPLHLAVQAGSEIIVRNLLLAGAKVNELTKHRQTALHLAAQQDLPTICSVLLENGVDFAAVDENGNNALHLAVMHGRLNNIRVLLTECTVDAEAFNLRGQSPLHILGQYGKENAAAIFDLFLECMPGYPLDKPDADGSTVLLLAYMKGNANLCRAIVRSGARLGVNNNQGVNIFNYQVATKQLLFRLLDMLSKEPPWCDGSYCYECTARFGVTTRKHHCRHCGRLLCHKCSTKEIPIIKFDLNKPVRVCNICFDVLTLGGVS
UniProt Q9NYG5, whole entry, looked up: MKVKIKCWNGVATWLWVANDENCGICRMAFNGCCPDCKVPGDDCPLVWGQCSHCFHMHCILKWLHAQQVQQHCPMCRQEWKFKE
UniProt O43865, whole entry, looked up: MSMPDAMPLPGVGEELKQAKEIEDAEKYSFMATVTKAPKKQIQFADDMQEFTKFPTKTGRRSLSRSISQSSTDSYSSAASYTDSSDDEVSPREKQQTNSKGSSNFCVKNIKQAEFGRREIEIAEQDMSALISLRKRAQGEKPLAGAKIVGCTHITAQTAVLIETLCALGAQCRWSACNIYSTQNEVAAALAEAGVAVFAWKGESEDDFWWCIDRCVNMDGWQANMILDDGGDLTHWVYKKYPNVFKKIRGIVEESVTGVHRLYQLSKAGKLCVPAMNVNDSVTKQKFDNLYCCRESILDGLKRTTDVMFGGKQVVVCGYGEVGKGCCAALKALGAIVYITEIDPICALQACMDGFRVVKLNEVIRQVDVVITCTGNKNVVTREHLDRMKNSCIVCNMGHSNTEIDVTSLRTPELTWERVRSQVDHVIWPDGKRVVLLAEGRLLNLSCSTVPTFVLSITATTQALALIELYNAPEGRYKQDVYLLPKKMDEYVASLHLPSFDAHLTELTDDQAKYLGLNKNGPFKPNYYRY
UniProt O95831, whole entry, looked up: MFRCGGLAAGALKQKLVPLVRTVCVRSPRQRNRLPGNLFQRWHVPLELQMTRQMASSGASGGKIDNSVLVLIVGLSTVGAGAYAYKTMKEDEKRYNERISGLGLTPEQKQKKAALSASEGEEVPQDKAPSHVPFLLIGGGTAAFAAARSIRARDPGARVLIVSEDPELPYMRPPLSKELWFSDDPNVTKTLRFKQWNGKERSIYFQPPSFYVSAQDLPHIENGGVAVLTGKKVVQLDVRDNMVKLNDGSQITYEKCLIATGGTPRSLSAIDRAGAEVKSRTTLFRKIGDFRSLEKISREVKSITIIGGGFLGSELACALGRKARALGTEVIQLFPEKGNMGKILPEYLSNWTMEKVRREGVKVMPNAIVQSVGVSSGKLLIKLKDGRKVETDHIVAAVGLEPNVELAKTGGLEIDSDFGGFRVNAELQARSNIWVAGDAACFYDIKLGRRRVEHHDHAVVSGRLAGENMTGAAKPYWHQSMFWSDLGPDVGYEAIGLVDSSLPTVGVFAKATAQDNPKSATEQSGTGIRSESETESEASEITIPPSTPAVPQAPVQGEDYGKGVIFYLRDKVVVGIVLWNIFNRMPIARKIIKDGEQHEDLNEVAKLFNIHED

Compound: Cc1cc(ccc1-c1ccccc1)C(=O)N1CCCN(CC1)C(=O)CCl [compound 10]
Experiment: probe-labelled cysteine peptide fold change vs DMSO (competition) (log2 fold change); higher = less target engagement (more negative = stronger competition)
Conditions: THP-1, incubation time: 4 h
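Note: competitive profiling in live THP-1 cells: cysteine peptides tagged with an iodoacetamide desthiobiotin (IA-DTB) probe, intensity after compound treatment relative to DMSO-treated cells.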

Target | probe-labelled cysteine peptide fold change (10 µM) | probe-labelled cysteine peptide fold change (50 µM)
AKAP8_O43823_392+395_IQFACSVCK (UniProt O43823) | 0.155 | -0.372
AKR1A1_P14550_134_NADGTICYDSTHYK (UniProt P14550) | -0.106 | -0.0321
ALG11_Q2TAA5_72_NQMVIAFFHPYCNAGGGGER (UniProt Q2TAA5) | 0.0627 | -0.603
AKAP9_Q99996_2868_EECGTLK (UniProt Q99996) | -0.0389 | 0.0822
ANKFY1_Q9P2R3_1060_GNANLCR (UniProt Q9P2R3) | -0.0224 | 0.0974
ANAPC11_Q9NYG5_54_VPGDDCPLVWGQCSHCFHMHCILK (UniProt Q9NYG5) | 0.213 | -0.0887
AHCYL1_O43865_293_QKFDNLYCCR (UniProt O43865) | -0.0835 | -0.419
ALDH3A2_P51648_220+226_DCDLDIVCR (UniProt P51648) | 0.249 | 0.311
ANAPC11_Q9NYG5_51_VPGDDCPLVWGQCSHCFHMHCILK (UniProt Q9NYG5) | 0.0232 | -0.207
ALDH9A1_P49189_96_EREDEIATMECINNGK (UniProt P49189) | -0.287 | 0.0957
ANAPC4_Q9UJX5_697_LDEQCSAIPTR (UniProt Q9UJX5) | -0.0466 | 0.113
AHCY_P23526_421_QAQYLGMSCDGPFKPDHYRY (UniProt P23526) | -0.14 | -0.284
AHNAK_Q09666_1833_GPFVEAEVPDVDLECPDAK (UniProt Q09666) | -0.0289 | -0.194
AKAP13_Q12802_2101_FCGQHNQSVNYFK (UniProt Q12802) | -0.0819 | -0.0492
ANKHD1_Q8IWZ3_213_SLAEACSDGDVNAVR (UniProt Q8IWZ3) | 0.295 | 0.212
ALDH9A1_P49189_288+289_GALMANFLTQGQVCCNGTR (UniProt P49189) | 0.182 | 0.0492
ALDOA_P04075_73_QLLLTADDRVNPCIGGVILFHETLYQK (UniProt P04075) | 0.113 | -0.0442
ANAPC4_Q9UJX5_553_SMNQAICIPLYR (UniProt Q9UJX5) | 0.0453 | -0.0875
ANKFY1_Q9P2R3_843_QGLTPFACAMTFK (UniProt Q9P2R3) | -0.108 | -0.109

Target | probe-labelled cysteine peptide fold change (10 µM) | probe-labelled cysteine peptide fold change (50 µM)
AIFM1_O95831_317_SITIIGGGFLGSELACALGR (UniProt O95831) | -0.00971 | 0.0912
ANKHD1_Q8IWZ3_1390_EVNQFPSDIECMR (UniProt Q8IWZ3) | 0.2 | 0.328
AMBP_P02760_277+281_ECLQTCR (UniProt P02760) | -0.644 | -0.975
AMPD2_Q01433_792_LSSCDMCELAR (UniProt Q01433) | 0.143 | -0.0423
AIMP2_Q13155_306_SCENLAPFNTALK (UniProt Q13155) | 0.0178 | 0.0757
AHRR_A9YTQ3_485_DVGEDQVHPPLCHFPQR (UniProt A9YTQ3) | 0.526 | 0.383
AHCYL1_O43865_172_IVGCTHITAQTAVLIETLCALGAQCR (UniProt O43865) | -0.284 | 0.552
ALDH18A1_P54886_546_EAVQLVNTREEVEDLCR (UniProt P54886) | 0.0034 | -0.0393
AIFM1_O95831_441_SNIWVAGDAACFYDIK (UniProt O95831) | -0.00471 | 0.203
AIMP1_Q12904_211_MVILLCNLK (UniProt Q12904) | 0.0571 | 0.381
AKAP9_Q99996_1782_SCVHEEHTR (UniProt Q99996) | -0.202 | -0.115
AMOT_Q4VCS5_741_CLDMEGR (UniProt Q4VCS5) | 0.131 | -0.346
AKAP9_Q99996_3063_TELTALGTTDAVGLLNCLEQR (UniProt Q99996) | -0.176 | -0.488
ALDH6A1_Q02252_149_GLQVVEHACSVTSLMMGETMPSITK (UniProt Q02252) | -0.0217 | -0.112
ALKBH8_Q96BT7_296_YLWTHGITCR (UniProt Q96BT7) | -0.00127 | -0.239
AKR1C3_P42330_242_WVDPNSPVLLEDPVLCALAK (UniProt P42330) | 0.288 | 0.69
AKAP9_Q99996_3508_LIEMNGGGTGCNHELEMIR (UniProt Q99996) | -0.0253 | -0.114
AHCYL1_O43865_392_NSCIVCNMGHSNTEIDVTSLR (UniProt O43865) | 0.17 | 0.08
